Laboratory results taken from paper PMC12574227.
Results are given in words; binding and its absence hold for the method and conditions named. Binding seen in cells or lysates may run through a third protein. Some binding calls cover weakened binding; strength is not graded here.

Chains of the proteins cited; added tags and fusions are not shown. Residues count along the entry.
UniProt Q08722, residues 19-323: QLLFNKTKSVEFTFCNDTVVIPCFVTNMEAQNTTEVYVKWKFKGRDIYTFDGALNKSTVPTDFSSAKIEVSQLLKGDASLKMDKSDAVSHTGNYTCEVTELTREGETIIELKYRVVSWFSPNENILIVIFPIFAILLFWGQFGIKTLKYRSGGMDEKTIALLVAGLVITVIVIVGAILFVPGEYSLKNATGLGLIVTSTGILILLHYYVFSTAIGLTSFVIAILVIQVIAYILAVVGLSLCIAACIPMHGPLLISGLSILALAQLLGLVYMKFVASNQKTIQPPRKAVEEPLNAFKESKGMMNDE
UniProt Q9UIJ5: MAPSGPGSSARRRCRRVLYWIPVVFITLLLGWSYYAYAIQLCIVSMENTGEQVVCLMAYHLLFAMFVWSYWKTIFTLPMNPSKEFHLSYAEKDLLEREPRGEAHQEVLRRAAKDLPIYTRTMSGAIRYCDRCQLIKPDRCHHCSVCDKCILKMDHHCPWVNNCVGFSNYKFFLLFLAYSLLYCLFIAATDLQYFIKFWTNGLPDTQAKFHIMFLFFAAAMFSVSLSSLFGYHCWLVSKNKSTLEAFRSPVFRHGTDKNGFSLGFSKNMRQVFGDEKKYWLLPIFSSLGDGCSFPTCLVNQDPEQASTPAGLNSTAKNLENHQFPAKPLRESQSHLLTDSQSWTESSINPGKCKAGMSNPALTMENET

Biological target: CD47 (human (endogenous in PC-3 and DU145)) (UniProt Q08722)
Test: co-IP; immunoprecipitation in lysates of PC-3 and DU145 cells with ZDHHC2 and CD47 antibodies; Western blot

## ZDHHC2 (from UniProt Q9UIJ5 1-367) (enzyme)
  binding: binds
